Experimental data: PubChem BioAssay AID686943 (Drosophila RNAi Screening Center, 2013)
Test: 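Knockdowns that increase or decrease active ERK after insulin receptor stimulation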 (primary screen). System: Drosophila S2R+ haemocyte-like cells expressing YFP-tagged ERK (Rolled). Knock-down reagent: long dsRNA against Drosophila genes. Treatment: insulin stimulation versus unstimulated cells; dose and duration not given. Read-out: 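Per-plate z-scores of phospho-ERK immunostaining normalised to YFP-tagged ERK, measured with and without insulin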. Reading the numbers: replicate 1, z-score of dpERK with insulin and replicate 2, z-score of dpERK with insulin: higher = more active ERK per ERK-YFP after insulin.
In all, the deposit lists about 23,000 reagents; below is a random part of those with a known target gene and a result. 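Extra replicates exist only for a retested subset of genes; insulin dose and duration not given; both raised and lowered dpERK matter.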 Further read-outs or replicates are left out here. The record does not give: the amount of reagent, the time to read-out.

Trmt6 [DRSC03272]: replicate 1, z-score of dpERK with insulin = 0.52; replicate 2, z-score of dpERK with insulin = -0.42
Pef [DRSC06695]: replicate 1, z-score of dpERK with insulin = -0.02; replicate 2, z-score of dpERK with insulin = -0.03
Nph [DRSC16342]: replicate 1, z-score of dpERK with insulin = 0.37; replicate 2, z-score of dpERK with insulin = -0.09
AsnRS [DRSC01990]: replicate 1, z-score of dpERK with insulin = -0.52; replicate 2, z-score of dpERK with insulin = -1.19
CG1703 [DRSC19764]: replicate 1, z-score of dpERK with insulin = -0.17; replicate 2, z-score of dpERK with insulin = -0.42
gny [DRSC02810]: replicate 1, z-score of dpERK with insulin = 0.29; replicate 2, z-score of dpERK with insulin = 0.38
CG15696 [DRSC15118]: replicate 1, z-score of dpERK with insulin = 0.06; replicate 2, z-score of dpERK with insulin = 0.29
CG43117 [DRSC13767]: replicate 1, z-score of dpERK with insulin = 1.33; replicate 2, z-score of dpERK with insulin = 0.28
Grl36b [DRSC01627]: replicate 1, z-score of dpERK with insulin = 0.19; replicate 2, z-score of dpERK with insulin = -0.32
Cyp4e3 [DRSC03306]: replicate 1, z-score of dpERK with insulin = 0.68; replicate 2, z-score of dpERK with insulin = 0.09
Lamtor1 [DRSC10183]: replicate 1, z-score of dpERK with insulin = 0.45; replicate 2, z-score of dpERK with insulin = -0.26
CG31157 [DRSC21832]: replicate 1, z-score of dpERK with insulin = -0.54; replicate 2, z-score of dpERK with insulin = -0.52
CG13667 [DRSC10028]: replicate 1, z-score of dpERK with insulin = -0.34; replicate 2, z-score of dpERK with insulin = 0.46
CG7557 [DRSC10878]: replicate 1, z-score of dpERK with insulin = 0.28; replicate 2, z-score of dpERK with insulin = 0.2
Sec15 [DRSC16179]: replicate 1, z-score of dpERK with insulin = -1.47; replicate 2, z-score of dpERK with insulin = 0
Ugt35C1 [DRSC16080]: replicate 1, z-score of dpERK with insulin = -0.03; replicate 2, z-score of dpERK with insulin = -0.07
Krn [DRSC11202]: replicate 1, z-score of dpERK with insulin = -1.57; replicate 2, z-score of dpERK with insulin = -2.18
CG6414 [DRSC18401]: replicate 1, z-score of dpERK with insulin = 0.24; replicate 2, z-score of dpERK with insulin = 0.65
rgr [DRSC06487]: replicate 1, z-score of dpERK with insulin = 0.64; replicate 2, z-score of dpERK with insulin = 0.44
rgr [DRSC07229]: replicate 1, z-score of dpERK with insulin = 0.33; replicate 2, z-score of dpERK with insulin = 0.1
puml [DRSC06793]: replicate 1, z-score of dpERK with insulin = 1.17; replicate 2, z-score of dpERK with insulin = 0.11
Gdap1 [DRSC10437]: replicate 1, z-score of dpERK with insulin = -0.87; replicate 2, z-score of dpERK with insulin = 0.18
Cpr76Ba [DRSC11060]: replicate 1, z-score of dpERK with insulin = -0.68; replicate 2, z-score of dpERK with insulin = -0.31
CG13137 [DRSC02234]: replicate 1, z-score of dpERK with insulin = 0.05; replicate 2, z-score of dpERK with insulin = 0.22
CG4970 [DRSC02796]: replicate 1, z-score of dpERK with insulin = 0.2; replicate 2, z-score of dpERK with insulin = -0.11
CG10469 [DRSC09729]: replicate 1, z-score of dpERK with insulin = 0.14; replicate 2, z-score of dpERK with insulin = 0.22
Picot [DRSC07508]: replicate 1, z-score of dpERK with insulin = 1.23; replicate 2, z-score of dpERK with insulin = 1.92
eIF6 [DRSC04674]: replicate 1, z-score of dpERK with insulin = 0.47; replicate 2, z-score of dpERK with insulin = 0.38
sra [DRSC17015]: replicate 1, z-score of dpERK with insulin = -0.42; replicate 2, z-score of dpERK with insulin = -0.03
IFT57 [DRSC00720]: replicate 1, z-score of dpERK with insulin = -0.1; replicate 2, z-score of dpERK with insulin = 0.32
CG6873 [DRSC20014]: replicate 1, z-score of dpERK with insulin = -1.74; replicate 2, z-score of dpERK with insulin = -0.73
CHMP2B [DRSC10436]: replicate 1, z-score of dpERK with insulin = 0.05; replicate 2, z-score of dpERK with insulin = 0.15
CG12081 [DRSC17802]: replicate 1, z-score of dpERK with insulin = 0.12; replicate 2, z-score of dpERK with insulin = 0.56
CG2258 [DRSC18222]: replicate 1, z-score of dpERK with insulin = -1.13; replicate 2, z-score of dpERK with insulin = -0.16
Task6 [DRSC16530]: replicate 1, z-score of dpERK with insulin = 0.66; replicate 2, z-score of dpERK with insulin = 1.07
CG32986 [DRSC02509]: replicate 1, z-score of dpERK with insulin = -0.03; replicate 2, z-score of dpERK with insulin = -0.21
Hgsnat [DRSC18405]: replicate 1, z-score of dpERK with insulin = 0.34; replicate 2, z-score of dpERK with insulin = 0.51
CG13857 [DRSC14707]: replicate 1, z-score of dpERK with insulin = 0.38; replicate 2, z-score of dpERK with insulin = 0.38
CG15347 [DRSC18031]: replicate 1, z-score of dpERK with insulin = 0.55; replicate 2, z-score of dpERK with insulin = 0
CG15140 [DRSC02440]: replicate 1, z-score of dpERK with insulin = -0.04; replicate 2, z-score of dpERK with insulin = 0.21

Taken from above:
gny [DRSC02810], replicate 2, z-score of dpERK with insulin = 0.38
Value of CG32986 [DRSC02509] in “replicate 2, z-score of dpERK with insulin”: -0.21
CG15347 [DRSC18031], replicate 2, z-score of dpERK with insulin: 0
Hgsnat [DRSC18405], replicate 1, z-score of dpERK with insulin → 0.34
